Results are given in words; binding and its absence hold for the method and conditions named. Binding seen in cells or lysates may run through a third protein. These calls come from enrichment with a bait or labelling near it, and not all partners need be listed.
T1: p66Shc (66 kDa isoform of ShcA), endogenous (mouse (endogenous in mouse liver and AML12)) (UniProt P98083)
T1 sequence: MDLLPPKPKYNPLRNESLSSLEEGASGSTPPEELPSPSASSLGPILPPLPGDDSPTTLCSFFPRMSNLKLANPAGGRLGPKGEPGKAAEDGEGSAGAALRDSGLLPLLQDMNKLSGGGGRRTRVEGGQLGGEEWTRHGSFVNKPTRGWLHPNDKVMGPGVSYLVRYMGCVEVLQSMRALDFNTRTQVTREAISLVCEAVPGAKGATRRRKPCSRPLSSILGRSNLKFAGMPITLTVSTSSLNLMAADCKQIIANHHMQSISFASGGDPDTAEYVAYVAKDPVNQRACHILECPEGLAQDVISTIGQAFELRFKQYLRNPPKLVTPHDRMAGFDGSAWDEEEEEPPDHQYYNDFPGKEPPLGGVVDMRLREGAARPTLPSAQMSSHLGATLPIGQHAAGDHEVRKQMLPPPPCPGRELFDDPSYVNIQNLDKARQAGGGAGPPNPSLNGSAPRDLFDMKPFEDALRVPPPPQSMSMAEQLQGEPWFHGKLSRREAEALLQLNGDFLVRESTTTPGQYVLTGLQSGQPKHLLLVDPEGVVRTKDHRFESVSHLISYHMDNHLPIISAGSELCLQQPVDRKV

The chains behind the UniProt entries cited, without tags or fusion partners.
UniProt P56399: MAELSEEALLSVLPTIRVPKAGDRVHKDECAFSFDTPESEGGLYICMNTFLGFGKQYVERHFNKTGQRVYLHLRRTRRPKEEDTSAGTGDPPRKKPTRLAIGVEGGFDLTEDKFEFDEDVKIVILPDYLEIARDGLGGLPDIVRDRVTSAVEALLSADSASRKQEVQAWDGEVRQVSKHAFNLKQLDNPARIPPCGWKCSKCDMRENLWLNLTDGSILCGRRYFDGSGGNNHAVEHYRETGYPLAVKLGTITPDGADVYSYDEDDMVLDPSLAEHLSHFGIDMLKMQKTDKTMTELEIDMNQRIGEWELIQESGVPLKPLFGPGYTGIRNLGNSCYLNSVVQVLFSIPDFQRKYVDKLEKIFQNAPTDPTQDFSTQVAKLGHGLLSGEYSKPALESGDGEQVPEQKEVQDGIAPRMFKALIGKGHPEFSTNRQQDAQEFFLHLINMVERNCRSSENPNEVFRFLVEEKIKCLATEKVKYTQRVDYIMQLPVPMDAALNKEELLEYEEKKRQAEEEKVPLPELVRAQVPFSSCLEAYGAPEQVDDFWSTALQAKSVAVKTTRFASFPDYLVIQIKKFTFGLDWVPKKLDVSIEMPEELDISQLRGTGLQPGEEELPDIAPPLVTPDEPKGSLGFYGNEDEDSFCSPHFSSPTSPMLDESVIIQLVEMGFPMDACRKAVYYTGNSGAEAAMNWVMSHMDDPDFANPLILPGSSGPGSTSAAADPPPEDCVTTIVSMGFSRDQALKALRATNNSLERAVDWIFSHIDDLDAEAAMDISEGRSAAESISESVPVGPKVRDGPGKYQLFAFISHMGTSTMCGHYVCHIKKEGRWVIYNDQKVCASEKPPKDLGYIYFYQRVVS
UniProt P52479: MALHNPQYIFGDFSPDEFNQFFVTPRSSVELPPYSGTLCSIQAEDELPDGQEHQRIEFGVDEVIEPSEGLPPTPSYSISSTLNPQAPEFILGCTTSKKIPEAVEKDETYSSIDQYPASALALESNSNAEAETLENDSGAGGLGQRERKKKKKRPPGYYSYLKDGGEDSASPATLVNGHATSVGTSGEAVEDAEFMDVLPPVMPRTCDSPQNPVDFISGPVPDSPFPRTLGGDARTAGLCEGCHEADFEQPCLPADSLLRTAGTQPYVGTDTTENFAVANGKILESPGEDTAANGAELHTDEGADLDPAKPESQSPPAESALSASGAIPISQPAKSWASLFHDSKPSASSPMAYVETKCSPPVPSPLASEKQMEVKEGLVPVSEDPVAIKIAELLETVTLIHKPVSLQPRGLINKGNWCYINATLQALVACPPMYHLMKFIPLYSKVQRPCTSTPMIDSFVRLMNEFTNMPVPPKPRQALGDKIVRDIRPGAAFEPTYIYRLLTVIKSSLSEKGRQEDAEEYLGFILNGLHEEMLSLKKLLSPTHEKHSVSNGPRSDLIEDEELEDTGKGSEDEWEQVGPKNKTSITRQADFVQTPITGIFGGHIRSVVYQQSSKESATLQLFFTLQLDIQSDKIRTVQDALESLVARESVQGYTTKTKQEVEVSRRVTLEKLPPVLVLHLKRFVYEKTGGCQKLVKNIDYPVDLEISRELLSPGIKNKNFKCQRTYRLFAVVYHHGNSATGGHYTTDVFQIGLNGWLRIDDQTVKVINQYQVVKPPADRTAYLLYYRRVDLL
UniProt Q9JMA1: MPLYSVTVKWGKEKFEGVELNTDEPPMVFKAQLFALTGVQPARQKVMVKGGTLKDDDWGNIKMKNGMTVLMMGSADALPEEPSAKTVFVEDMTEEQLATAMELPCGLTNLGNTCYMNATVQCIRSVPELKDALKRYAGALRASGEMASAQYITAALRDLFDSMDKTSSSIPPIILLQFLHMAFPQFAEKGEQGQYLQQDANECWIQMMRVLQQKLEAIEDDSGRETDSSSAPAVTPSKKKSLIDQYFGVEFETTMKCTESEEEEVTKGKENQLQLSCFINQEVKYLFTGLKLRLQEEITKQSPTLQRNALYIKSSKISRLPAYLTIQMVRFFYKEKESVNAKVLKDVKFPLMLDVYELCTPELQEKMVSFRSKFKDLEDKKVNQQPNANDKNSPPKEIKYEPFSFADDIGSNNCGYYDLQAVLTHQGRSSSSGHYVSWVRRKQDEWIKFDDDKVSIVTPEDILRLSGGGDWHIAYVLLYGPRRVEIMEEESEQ


molecular target: T1, p66Shc (66 kDa isoform of ShcA), endogenous (mouse (endogenous in mouse liver and AML12)); experiment: affinity purification with mass spectrometry; IP with anti-p66Shc antibody on Protein A/G magnetic beads from AML12 cells exposed to H/R; room temperature 1 h; SDS-PAGE, Coomassie, in-gel digestion, LC-MS/MS; search of the UniProt human database

Row | Molecule | binding
1 | USP5, endogenous (from UniProt P56399 1-858) (enzyme) | binds
2 | USP10, endogenous (from UniProt P52479 1-792) (enzyme) | binds
3 | USP14, endogenous (from UniProt Q9JMA1 1-493) (enzyme) | binds
4 | Dusp28, endogenous (enzyme, UniProt Q8BTR5 1-163) MGTSEAAPPPFARVAPALFIGNARAAGATELLVRAGITLCVNVSRQQPGPRAPGVAELRVPVFDDPAEDLLTHLEPTCAAMEAAVRDGGSCLVYCKNGRSRSAAVCTAYLMRHRGHSLDRAFQMVKSARPVAEPNLGFWAQLQKYEQTLQAQAILPREPIDPE | binds

Other lines, results leading:

Row | binding | Molecule
5 | binds | USP43, endogenous (enzyme, UniProt Q8BUM9 1-1132) MDPGVGNALGEGPPAPRPRRRRSLRRLLNRFLLALGSRSRSGDSPPRPPAQPSPYDGDGEGGFACAPGPAPASAGSPGPDRPPGSQPQISSGDGARPPGAQGLKNHGNTCFMNAVVQCLSNTDLLAEFLALGRYRAAPGRAEVTEQLAALVRALWTREYTPQLSAEFKNAVSKYGSQFQGNSQHDALEFLLWLLDRVHEDLEGSAHGLVSEQLPPEVSKISEDLRPSAAPTSLGPSFVQSHFQAQYRSSLTCPHCLKQSNTFDPFLCVSLPIPLRQTRFLSVTLVFPSKSQRFLRVGLAVPILSTVAALRKMVAEEGGVPAEEVILVELYPNGFQRSFFDEEDLNTIAEGDNVYAFQVPPSPGLGTLSAHPSGLSVSPRLPVRDSQRFSGPLHSENRVVFLFCNLVGSGQQASRFGPPFLIREDRTISWAQLQQCILSKVRCLMRSEVSAQDLGTLFSIRVVGLSLACSYLSPKDNRPLCHWAVDRALHLRRPGGPPHVKLAVEWDSSVTERLFGSLQEERVQDADSVWRQQQAHQQPSCTLDECFQSYTKEEQLAQDDAWKCPHCQVLQQGVVKLSLWTLPDILIIHLKRFCQVGERRNKLSTLVKFPLSGLNMAPHVARRSTNSKAGPGPWSSWKQPICLPTTYPLDFLYDLYAVCNHHGSLQGGHYTAYCRNSLDGQWYSYDDSTVEALREDEVNTRGAYILFYQKRNSIPPWSASSSMRGSTSSSLSDHWLMRLGSLNNSTRGSLLSWSSAPCPSMARVPDSPVFTNGVCHQDKGGVETRPLVRGVGGRSISMKASPASRSRHGPFKTMPLRWSFGHREKRPGASVELVEYLESRRRPRSTSQSIVPLLTRAAGGEETSASPRSDGTLPAKSEDSGRAIGQGTTGVPLSSCHLNHHPALGSLDDSLHTARTRTGNVSQDIRLPKKFDLPLTVMPSVGDEKPARPEGQKMTPWKGSSQVGSQSSPPSPSTGLLRNFKDSGPGTLPKMKSKAAMEERAPDKDRGQGTFTLLKSVFWKKEHKRTVRTESSPPAPPISLGSDRLSPAAMNEQALRIRESPAKGLGNHMERDIRSAPSSLHLPRKASRPPRASTAGTSQRTIPGEQISYGTLQRVKYHTLSLGRKKSLPESSF
6 | binds | USP47, endogenous (enzyme, UniProt Q8BY87 1-1376) MVPGEENQLVPKEDVFWRCRQNIFDEMKKKFLQIENAAEEPRVLCIIQDTTNSKTVSERITLNLPASTPVRKLFEDVANKVGYINGTFDLTRENGVTTADMAPLDHTSDKSLLDANFEPGKKNFLHLTDKDGEPPQMLLEDSNNVDDSVHDRFIGPLPREGSVASTNDYVSQNYSYSSILNKSETGYVGLVNQAMTCYLNSLLQTLFMTPEFRNALYKWEFEDSEEDPVTSIPYQLQRLFVLLQTSKKRAIETTDVTRSFGWDSSEAWQQHDVQELCRVMFDALEQKWKQTEQADLINELYQGKLKDYVRCLECGYEGWRIDTYLDIPLVIRPYGSSQAFASVEEALHAFIQPEILDGPNQYFCERCKKKCDARKGLRFLHFPYLLTLQLKRFDFDYTTMHRIKLNDRMSFPEELDMSTFIDIEDEKSPQTESCTDSGAENEGSCHSDQMSNDFSTDDAVDEGICLESSSGSEKISKPGLEKNSLMYELFSVMVHSGSAAGGHYYACIKSFSDDQWYSFNDQHVSRITQEDIKKTHGGSSGSRGYYSSAFASSTNAYMLIYRLKDPTRNAKFLEVDEYPEHIKNLVQKERELEEQEKRQREIERNTCKIKLFCLHPVKQVMMENKLEVHKDKTLKEAVEMAYKMMDLEDVIPLDCCRLVKYDEFHDYLERSYEGEEDTPMGLLLGGVKSTYMFDLLLETRKPDQIFQSYKPGEVMVKVHVVDLKAETVAAPVTVRAYLNQTVTEFKQLISKATHLPADSMRIVLERCYNDLRLLSMPSKTLKAEGFFRSNKVFVESSETVDHQAAFTDSHLWKLLDRHANTIRLFVLLPEQSPGSYSKRTAYQKAGGDSGNVDDDCERVKGPAGNLKSVDAILEESTEKLKSLSLQQQQQDGDNGDSSKSTETSDFENIESPLNERGSSTSVDNRELEQHIQTSDPENFQSEERSDSDVNNDRSTSSVDSDILSSSHSSDTLCNADSAQIPLANGLDSHSITSSRRTKANEGKKETWDTAEEDSGTDSEYDESGKSRGDMQYMYFKADPYTADEGSGEGHKWLMVHVDKRITLAAFKQHLEPFVGVLSSHFKVFRVYTSNQEFETVRLNETLSSFSDDNKITIRLGRALKKGEYRVKVCQLLVNEQEPCKFLLDAVFAKGMTVRQSKEELIPQLREQCGLDLSIDRFRLRKKTWKNPGTVFLDYHIYEEDINISSNWEVFLEVLDGVEKMKSMSQLAILTRRWRPAEMKLDPFQELVLESNSVDELREKLSEISGIPLEDIEFAKGRGTFPCDISVLDIHQDLDWNPKVSTLNVWPLYICDDGAVIFYRDRTEEVMELTDEQRNELMKKESSRLQKTGHRVTYSPRKEKALKIYLDGAPNKDVAQD
7 | binds | ubiquitin-specific protease 15 (USP15), endogenous (enzyme, UniProt Q8R5H1 1-981) MAEGGAADLDTQRSDIATLLKTSLRKGDTWYLVDSRWFKQWKKYVGFDSWDKYQMGDQNVYPGPIDNSGLLKDGDAQSLKEHLIDELDYILLPTEGWNKLVSWYTLMEGQEPIARKVVEQGMFVKHCKVEVYLTELKLCENGNMNNVVTRRFSKADTIDTIEKEIRKIFNIPDEKEARLWNKYMSNTFEPLNKPDSTIQDAGLYQGQVLVIEQKNEDGTWPRGPSTPKSPGASNFSTLPKISPSSLSNNYNNINNRNVKNSNYCLPSYTAYKNYDYSEPGRNNEQPGLCGLSNLGNTCFMNSAIQCLSNTPPLTEYFLNDKYQEELNFDNPLGMRGEIAKSYAELIKQMWSGKFSYVTPRAFKTQVGRFAPQFSGYQQQDCQELLAFLLDGLHEDLNRIRKKPYIQLKDADGRPDKVVAEEAWENHLKRNDSIIVDIFHGLFKSTLVCPECAKISVTFDPFCYLTLPLPMKKERSLEVYLVRMDPLAKPMQYKVIVPKIGNILDLCTALSALSGVPADKMIVTDIYNHRFHRIFAVDENLSSIMERDDIYVFEININRAEDTEHVVIPVCLREKFRHSSYTHHTGSSLFGQPFLMAIPRNNTEDKLYNLLLLRMCRYVKMSTETEETDGHLRCCEDQNINGNGPNGLHEEGSPSEMETDEPDDESSQDQELPSENENSQSEDSVGGDNDSENGLCTEETCKGQLTGHKKRLFTFQFNNLGNNDINYIKDDTSHIRFDDRQLRLDERSFLALDWDPDLKKRYFDENAAEDFEKHESVEYKPPKRPFVKLKDCIELFTTKEKLGAEDPWYCPNCKEHQQATKKLDLWSLPPVLVVHLKRFSYSRYMRDKLDTLVDFPISDLDMSEFLINPNAGPCRYNLIAVSNHYGGMGGGHYTAFAKNKDDGKWYYFDDSSVSTASEDQIVSKAAYVLFYQRQDTFSGTGFFPLDRETKGASAATGIPLESDEDSNDNDNDLENENCMHTN

— article PMC9512921
